{
  "sequences": {"note": "Amino acid sequences for entries named in this document (tags omitted).", "UniProt P01108": "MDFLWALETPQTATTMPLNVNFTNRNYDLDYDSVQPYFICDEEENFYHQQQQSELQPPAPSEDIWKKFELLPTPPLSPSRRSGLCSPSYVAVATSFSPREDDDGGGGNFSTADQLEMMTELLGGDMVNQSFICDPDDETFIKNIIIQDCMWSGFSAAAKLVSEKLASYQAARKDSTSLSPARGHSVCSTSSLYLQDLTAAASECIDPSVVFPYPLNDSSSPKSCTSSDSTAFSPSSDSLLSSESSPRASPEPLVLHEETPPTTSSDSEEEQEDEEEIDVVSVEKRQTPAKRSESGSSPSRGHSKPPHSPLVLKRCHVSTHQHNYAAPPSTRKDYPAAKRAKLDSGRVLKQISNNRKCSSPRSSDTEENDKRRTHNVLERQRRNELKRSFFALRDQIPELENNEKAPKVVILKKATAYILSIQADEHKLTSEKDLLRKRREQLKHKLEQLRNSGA"},
  "source": "paper PMC8748873",
  "molecules": {"B1": {"name": "ZNF143 (protein, UniProt O70230 1-638)", "chain": "MLLAQINRDSQGMTEFPGGGMEAQHVTLCLTEAVTVADGDNLENMEGVSLQAVTLADGSTAYIQHNSKDGRLIDGQVIQLEDGSAAYVQHVPIPKSTGDSLRLEDGQAVQLEDGTTAFIHHTSKDSYDQSSLQAVQLEDGTTAYIHHAVQVPQSDTILAIQADGTVAGLHTGDATIDPDTISALEQYAAKVSIDGSDGVTSTGMIGENEQEKKMQIVLQGHATRVTPKSQQSGEKAFRCKYDGCGKLYTTAHHLKVHERSHTGDRPYQCEHSGCGKAFATGYGLKSHFRTHTGEKPYRCSEDNCTKSFKTSGDLQKHIRTHTGERPFKCPIEGCGRSFTTSNIRKVHIRTHTGERPYYCTEPGCGRAFASATNYKNHVRIHTGEKPYVCTVPGCDKRFTEYSSLYKHHVVHTHSKPYNCNHCGKTYKQISTLAMHKRTAHNDTEPIEEEQEAFFEPPPGQGDDVLKGSQITYVTGVDGEDIVSTQVATVTQSGLSQQVTLISQDGTQHVNISQADMQAIGNTITMVTQDGTPITVPTHDAVISSAGTHSVAMVTAEGTEGQQVAIVAQDLAAFHTASSEMGHQQHSHHLVTTETRPLTLVATSNGTQIAVQLGEQPSLEEAIRIASRIQQGETPGLDD"}},
  "key": {"[1]": {"target": "T1, RONIN (THAP Domain Containing 11) (mouse (endogenous in embryonic brain)) (UniProt Q9JJD0)", "T1 sequence": "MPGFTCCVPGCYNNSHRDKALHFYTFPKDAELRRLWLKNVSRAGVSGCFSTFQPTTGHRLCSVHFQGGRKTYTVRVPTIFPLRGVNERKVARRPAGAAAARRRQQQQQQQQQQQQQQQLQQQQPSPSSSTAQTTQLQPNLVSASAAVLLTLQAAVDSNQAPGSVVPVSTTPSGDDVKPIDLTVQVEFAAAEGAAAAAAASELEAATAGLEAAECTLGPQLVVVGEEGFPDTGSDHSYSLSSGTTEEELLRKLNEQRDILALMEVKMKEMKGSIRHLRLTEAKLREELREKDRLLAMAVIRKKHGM", "assay": "co-IP; endogenous proteins from embryonic mouse brain lysate (wild type, Hcfc1 A115V/Y or Ronin F80L/F80L); 500 ug lysate with 1 ug antibody overnight at 4 °C, Protein A/G magnetic beads, western blot"}, "[2]": {"target": "T1, RONIN (THAP Domain Containing 11) (mouse (endogenous in embryonic brain))", "assay": "co-IP; endogenous proteins from embryonic mouse brain and retinae; antibody overnight at 4 °C, Protein A/G magnetic beads, western blot"}},
  "note": "Results are given in words; binding and its absence hold for the method and conditions named. Binding seen in cells or lysates may run through a third protein.",
  "data": [
    {"molecule": "C-MYC (from UniProt P01108 1-454)", "values": [
      {"measurement": "binding", "setting": "[1]", "result": "no binding"}
    ]},
    {"molecule": "B1", "values": [
      {"measurement": "binding", "setting": "[2]", "result": "no binding"}
    ]}
  ]
}
